No constants are given. Whether binding was seen depends on the method and setting. Binding seen in cells or lysates may run through a third protein. Some entries that bind do so weakly or less than the wild type.
Molecular target: GST-tagged karyopherin beta 1 (KPNB1) (UniProt Q14974)
Assay: pull-down; Control GST or GST-KPNB1 coupled to glutathione beads, incubated with lysates of High Five insect cells overproducing individual CRL4^CRBN subunits; input (10%) and bound proteins analysed by immunoblot; only the target purified

The chains behind the UniProt entries cited, without tags or fusion partners.
UniProt Q14974: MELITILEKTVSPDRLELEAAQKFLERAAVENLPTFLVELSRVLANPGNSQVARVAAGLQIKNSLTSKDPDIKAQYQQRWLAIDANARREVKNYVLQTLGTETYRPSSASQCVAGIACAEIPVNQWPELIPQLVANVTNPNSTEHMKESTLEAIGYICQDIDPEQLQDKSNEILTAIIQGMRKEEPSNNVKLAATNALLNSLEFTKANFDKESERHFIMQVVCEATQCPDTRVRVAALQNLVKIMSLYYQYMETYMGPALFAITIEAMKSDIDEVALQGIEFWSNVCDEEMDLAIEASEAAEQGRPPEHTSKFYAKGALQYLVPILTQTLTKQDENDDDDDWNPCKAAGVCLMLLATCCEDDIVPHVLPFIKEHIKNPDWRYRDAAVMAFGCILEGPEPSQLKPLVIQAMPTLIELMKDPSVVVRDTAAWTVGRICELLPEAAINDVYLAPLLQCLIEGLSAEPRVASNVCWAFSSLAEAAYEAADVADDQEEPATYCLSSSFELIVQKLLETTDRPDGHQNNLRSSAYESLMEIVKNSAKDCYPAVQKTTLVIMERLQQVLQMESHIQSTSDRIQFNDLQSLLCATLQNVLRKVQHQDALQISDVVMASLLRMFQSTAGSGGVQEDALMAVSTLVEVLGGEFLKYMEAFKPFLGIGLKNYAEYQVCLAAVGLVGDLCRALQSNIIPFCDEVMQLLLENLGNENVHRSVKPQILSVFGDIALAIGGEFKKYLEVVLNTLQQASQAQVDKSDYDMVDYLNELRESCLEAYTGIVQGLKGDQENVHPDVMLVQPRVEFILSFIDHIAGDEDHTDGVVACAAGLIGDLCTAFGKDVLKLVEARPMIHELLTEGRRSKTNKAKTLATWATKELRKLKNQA
UniProt Q13619: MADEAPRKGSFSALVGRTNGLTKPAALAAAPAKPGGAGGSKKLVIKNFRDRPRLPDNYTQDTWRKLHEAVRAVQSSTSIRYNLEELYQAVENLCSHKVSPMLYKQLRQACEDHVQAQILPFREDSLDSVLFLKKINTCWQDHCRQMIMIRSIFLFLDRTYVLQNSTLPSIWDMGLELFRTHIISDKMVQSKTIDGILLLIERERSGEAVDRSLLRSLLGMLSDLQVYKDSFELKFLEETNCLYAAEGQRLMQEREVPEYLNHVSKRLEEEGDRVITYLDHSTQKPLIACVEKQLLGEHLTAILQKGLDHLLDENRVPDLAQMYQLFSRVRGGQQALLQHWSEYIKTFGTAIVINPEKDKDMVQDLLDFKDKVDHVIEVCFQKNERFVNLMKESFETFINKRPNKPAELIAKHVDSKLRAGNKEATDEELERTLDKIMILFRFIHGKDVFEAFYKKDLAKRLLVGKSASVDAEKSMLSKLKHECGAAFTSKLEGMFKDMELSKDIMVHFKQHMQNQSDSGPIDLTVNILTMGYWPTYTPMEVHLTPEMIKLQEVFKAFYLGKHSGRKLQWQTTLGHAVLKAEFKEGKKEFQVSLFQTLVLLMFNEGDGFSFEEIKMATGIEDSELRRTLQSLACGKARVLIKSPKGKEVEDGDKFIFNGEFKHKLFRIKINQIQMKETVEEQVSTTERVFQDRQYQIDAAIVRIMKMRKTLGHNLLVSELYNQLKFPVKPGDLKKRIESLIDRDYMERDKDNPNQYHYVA
UniProt Q96SW2: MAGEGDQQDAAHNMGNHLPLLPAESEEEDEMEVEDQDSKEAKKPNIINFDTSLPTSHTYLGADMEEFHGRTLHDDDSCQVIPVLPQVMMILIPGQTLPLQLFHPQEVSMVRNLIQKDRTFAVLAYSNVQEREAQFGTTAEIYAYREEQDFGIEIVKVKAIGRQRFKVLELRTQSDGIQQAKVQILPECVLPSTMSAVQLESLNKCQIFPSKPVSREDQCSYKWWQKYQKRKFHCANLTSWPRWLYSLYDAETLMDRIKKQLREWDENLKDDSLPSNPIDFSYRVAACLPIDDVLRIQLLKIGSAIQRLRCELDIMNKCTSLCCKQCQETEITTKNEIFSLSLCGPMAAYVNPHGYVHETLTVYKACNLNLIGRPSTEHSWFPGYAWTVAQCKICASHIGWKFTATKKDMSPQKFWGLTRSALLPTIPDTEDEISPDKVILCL

| Substance | binding |
| --- | --- |
| CUL4A overproduced in High Five insect cells (from UniProt Q13619 1-759) | binds |
| CRBN overproduced in High Five insect cells (from UniProt Q96SW2 1-442) | binds |
